# Measurements reported in PubChem BioAssay AID1259308 (NCATS, 2017)
# Aim: 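Knock-downs that increase output of a recombinant reporter protein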 (primary screen)
# Cells: human HEK293 embryonic kidney cells stably expressing firefly luciferase (HEK-CMV-Luc2-Hygro)
# Reagents: single siRNA against human genes, 0.8 pmol siRNA per well
# Duration: 72 h
# Measured: 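Luciferase light (ONE-Glo) measured on one replicate plate set and viability (CellTiter-Glo) on the other, scaled to a negative control siRNA, with robust z-scores and luciferase per cell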
# Direction: total luciferase, z-score and total luciferase, % of control: higher = more reporter protein produced; luciferase per cell, z-score: higher = more reporter output per viable cell; viable cells, % of control: higher = more viable cells
# Rule for the call: 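Active when the median/MAD z-score for overall luciferase is greater than 3; a gene was taken forward for validation with new siRNAs if at least two of its three siRNAs passed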
# Calls: active = raised luciferase; inactive = no rise
# Shown is a random part of about 59,000 deposited reagents. About 1,510 of all reagents (2.6%) were called active. 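Calls use total luciferase alone and ignore viability, so some active siRNAs may act by altering cell number.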 A number with no mark means an inactive call. Reagents against one gene are numbered here. No sequences are given here.
target,siRNA no.,"total luciferase, z-score","total luciferase, % of control","luciferase per cell, z-score","viable cells, % of control"
PEX7,1,0.627,94.4,0.559,91
PEX7,2,2.4,130,1.34,102
PEX7,3,0.344,88.7,-0.0412,100
CRIPTO,1,-0.635,69.2,0.377,70.1
CRIPTO,2,1.38,109,1.25,88
CRIPTO,3,-0.467,72.6,-1.07,107
ADGRL3,1,0.134,84.6,0.564,81.4
ADGRL3,2,-0.194,78,-0.0462,88.3
ADGRL3,3,1.55,113,0.739,104
LINC02510,1,4.27 (active),167,3.03,83.9
LINC02510,2,-2.48,32.6,-2.31,66.9
LINC02510,3,-1.41,53.8,-1.56,90.6
MRTO4,1,-0.0325,81.2,0.23,85.4
MRTO4,2,-1.34,55.2,-1.22,85.1
MRTO4,3,0.26,87.1,0.0438,96.2
ZNF25,1,-0.401,73.9,2.02,48.5
ZNF25,2,-0.891,64.2,-0.319,78
ZNF25,3,-1.43,53.5,-0.797,73.7
TRAPPC3,1,1.12,104,1.67,74.8
TRAPPC3,2,2.76,137,1.85,93.8
TRAPPC3,3,-0.68,68.4,0.123,73.9
GTPBP4,1,-1.4,54.1,-1.3,85
GTPBP4,2,-2.04,41.3,-2.29,84.3
GTPBP4,3,-1.96,43,-2.26,87.1

A portion taken from the entries so far, for reference:
target,siRNA no.,"total luciferase, z-score","total luciferase, % of control","luciferase per cell, z-score","viable cells, % of control"
ZNF25,2,-0.891,64.2,-0.319,78
ZNF25,3,-1.43,53.5,-0.797,73.7
TRAPPC3,1,1.12,104,1.67,74.8
